Source: article doi:10.1101/2021.08.22.457283
Results are given in words; binding and its absence hold for the method and conditions named. Binding seen in cells or lysates may run through a third protein. Some entries that bind do so weakly or less than the wild type.

By UniProt entry, the sequences of proteins in these tests, tags left out.
UniProt Q02248: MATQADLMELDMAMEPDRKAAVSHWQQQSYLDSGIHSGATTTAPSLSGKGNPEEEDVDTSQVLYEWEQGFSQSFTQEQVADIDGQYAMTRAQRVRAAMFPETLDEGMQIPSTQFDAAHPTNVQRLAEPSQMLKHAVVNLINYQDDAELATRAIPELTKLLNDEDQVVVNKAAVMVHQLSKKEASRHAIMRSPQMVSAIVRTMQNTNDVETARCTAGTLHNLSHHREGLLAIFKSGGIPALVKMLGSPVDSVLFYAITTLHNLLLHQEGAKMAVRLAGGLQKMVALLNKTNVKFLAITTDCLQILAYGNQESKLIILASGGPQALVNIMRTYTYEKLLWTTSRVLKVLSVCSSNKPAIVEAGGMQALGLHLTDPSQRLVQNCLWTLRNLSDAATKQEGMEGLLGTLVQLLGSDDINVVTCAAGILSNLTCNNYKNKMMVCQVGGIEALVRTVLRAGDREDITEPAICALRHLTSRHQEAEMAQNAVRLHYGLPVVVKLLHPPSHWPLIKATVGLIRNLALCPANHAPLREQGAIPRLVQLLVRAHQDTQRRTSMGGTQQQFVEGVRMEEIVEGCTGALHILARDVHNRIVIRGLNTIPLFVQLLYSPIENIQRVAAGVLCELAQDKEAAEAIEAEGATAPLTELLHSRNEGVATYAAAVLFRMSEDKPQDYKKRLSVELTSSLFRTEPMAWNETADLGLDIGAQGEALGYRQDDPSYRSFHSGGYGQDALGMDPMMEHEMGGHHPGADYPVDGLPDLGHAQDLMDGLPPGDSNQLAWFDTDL

Target: T1, TWIST1 (mouse (endogenous in embryonic hindbrain tissue)) (UniProt P26687)
T1 sequence: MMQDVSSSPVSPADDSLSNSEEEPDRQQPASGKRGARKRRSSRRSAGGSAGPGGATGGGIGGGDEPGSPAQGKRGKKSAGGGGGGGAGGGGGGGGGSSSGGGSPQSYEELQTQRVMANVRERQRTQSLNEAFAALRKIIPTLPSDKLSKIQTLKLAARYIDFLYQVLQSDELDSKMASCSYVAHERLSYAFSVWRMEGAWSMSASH
Assay: co-IP

binding: binds
Substance: β-CATENIN (from UniProt Q02248 1-781)
